{"source": "paper PMC5996148", "experiment_in_all_cases": "protein microarray (ProtoArray v5.0), streptavidin-Alexa Fluor 647", "conditions_in_all_cases": "3'-biotin; 20 mM Tris (pH 7.5), 5 mM MgCl2, 100 mM KCl, 0.1% Tween-20, A/T-rich and random oligonucleotide blockers; temperature not stated; high values mean tight binding", "key": {"ALOX15B (human)": {"tested_on": "ALOX15B (human)"}, "ALOX5 (human)": {"tested_on": "ALOX5 (human)"}, "ALS2 (human)": {"tested_on": "ALS2 (human)"}, "AMBP (human)": {"tested_on": "AMBP (human)"}, "AMDHD1 (human)": {"tested_on": "AMDHD1 (human)"}, "AMELX (human)": {"tested_on": "AMELX (human)"}, "ANKHD1 (human)": {"tested_on": "ANKHD1 (human)"}, "ANKRD17 (human)": {"tested_on": "ANKRD17 (human)"}, "ANKRD45 (human)": {"tested_on": "ANKRD45 (human)"}, "ANKRD50 (human)": {"tested_on": "ANKRD50 (human)"}, "ANPEP (human)": {"tested_on": "ANPEP (human)"}, "ANXA6 (human)": {"tested_on": "ANXA6 (human)"}, "ANXA7 (human)": {"tested_on": "ANXA7 (human)"}, "ANXA9 (human)": {"tested_on": "ANXA9 (human)"}, "APBA2BP (human)": {"tested_on": "APBA2BP (human)"}, "APBB1IP": {"molecular_target": "T1, APBB1IP (UniProt Q7Z5R6)", "T1 sequence": "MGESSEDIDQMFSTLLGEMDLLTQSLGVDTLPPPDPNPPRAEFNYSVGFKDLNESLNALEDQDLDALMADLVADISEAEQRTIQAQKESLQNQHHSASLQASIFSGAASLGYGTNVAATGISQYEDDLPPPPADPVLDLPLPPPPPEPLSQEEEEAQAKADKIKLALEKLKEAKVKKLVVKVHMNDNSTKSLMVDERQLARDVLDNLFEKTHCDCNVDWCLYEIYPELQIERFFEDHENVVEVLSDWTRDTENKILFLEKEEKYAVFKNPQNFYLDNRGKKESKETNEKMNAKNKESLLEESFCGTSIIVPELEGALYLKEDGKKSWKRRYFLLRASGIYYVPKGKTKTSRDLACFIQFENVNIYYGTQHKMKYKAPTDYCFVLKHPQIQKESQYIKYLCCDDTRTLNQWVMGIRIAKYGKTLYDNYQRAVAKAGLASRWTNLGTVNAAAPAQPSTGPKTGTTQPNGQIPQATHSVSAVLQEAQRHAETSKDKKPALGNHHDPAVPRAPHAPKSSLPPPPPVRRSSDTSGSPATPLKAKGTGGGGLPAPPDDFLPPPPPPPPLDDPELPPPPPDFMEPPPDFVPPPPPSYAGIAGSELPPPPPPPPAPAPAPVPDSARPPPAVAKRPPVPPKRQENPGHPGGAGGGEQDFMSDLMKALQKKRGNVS"}, "APIP (human)": {"tested_on": "APIP (human)"}, "APITD1 (human)": {"tested_on": "APITD1 (human)"}, "APOA1 (human)": {"tested_on": "APOA1 (human)"}, "APOA2 (human)": {"tested_on": "APOA2 (human)"}}, "note": "Values joined by “and” are separate entries in the source; they are usually repeats but may differ in a detail not shown here. Equal entries are not always repeated. Some of the results follow. For some assays here: Construct or isoform of the protein are uncertain.", "data": [{"sequence": "GGGGACAGGGGTATGGGGAGGGG [G4-3 biotinylated (CtG)]", "values": [{"measurement": "binding signal", "setting": "ALOX15B (human)", "result": -0.337, "unit": "z-score"}, {"measurement": "binding signal", "setting": "ALOX5 (human)", "result": -0.326, "unit": "z-score"}, {"measurement": "binding signal", "setting": "ALS2 (human)", "result": -0.309, "unit": "z-score"}, {"measurement": "binding signal", "setting": "AMBP (human)", "result": -0.313, "unit": "z-score"}, {"measurement": "binding signal", "setting": "AMDHD1 (human)", "result": -0.308, "unit": "z-score"}, {"measurement": "binding signal", "setting": "AMELX (human)", "result": -0.333, "unit": "z-score"}, {"measurement": "binding signal", "setting": "ANKHD1 (human)", "result": "-0.331 z-score and -0.328 z-score"}, {"measurement": "binding signal", "setting": "ANKRD17 (human)", "result": -0.333, "unit": "z-score"}, {"measurement": "binding signal", "setting": "ANKRD45 (human)", "result": -0.338, "unit": "z-score"}, {"measurement": "binding signal", "setting": "ANKRD50 (human)", "result": -0.336, "unit": "z-score"}, {"measurement": "binding signal", "setting": "ANPEP (human)", "result": -0.319, "unit": "z-score"}, {"measurement": "binding signal", "setting": "ANXA6 (human)", "result": -0.308, "unit": "z-score"}, {"measurement": "binding signal", "setting": "ANXA7 (human)", "result": -0.309, "unit": "z-score"}, {"measurement": "binding signal", "setting": "ANXA9 (human)", "result": -0.339, "unit": "z-score"}, {"measurement": "binding signal", "setting": "APBA2BP (human)", "result": -0.331, "unit": "z-score"}, {"measurement": "binding signal", "setting": "APBB1IP", "result": -0.328, "unit": "z-score"}, {"measurement": "binding signal", "setting": "APIP (human)", "result": "-0.331 z-score and -0.313 z-score"}, {"measurement": "binding signal", "setting": "APITD1 (human)", "result": -0.325, "unit": "z-score"}, {"measurement": "binding signal", "setting": "APOA1 (human)", "result": -0.342, "unit": "z-score"}, {"measurement": "binding signal", "setting": "APOA2 (human)", "result": -0.341, "unit": "z-score"}]}]}
